# Test results from paper PMC8356473.
# Results are given in words; binding and its absence hold for the method and conditions named. Binding seen in cells or lysates may run through a third protein. Binding can be weak; no strength is given. Tags and fused reporters may be left off the sequences shown.
# Target: T1, FLAG-SH3BGRL3 (SH3 Domain Binding Glutamate Rich Protein Like 3), expressed in SKBR3 cells (human) (UniProt Q9H299)
# T1 sequence: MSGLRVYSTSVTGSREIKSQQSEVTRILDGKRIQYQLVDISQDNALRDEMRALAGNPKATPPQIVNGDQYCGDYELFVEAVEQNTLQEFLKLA
# Test: co-IP; SKBR3 cells transfected or co-transfected; lysate in EB buffer on anti-FLAG M2 Affinity gel resin overnight at 4 °C, 5 washes with EB buffer, elution with 10% SDS, western blot (anti-Myo1c, anti-ErbB2 or anti-HA)
row,Substance,binding
1,"Myo1c NECK+TAIL, HA-tagged (domain or fragment)",binds
2,"Myo1c TAIL, HA-tagged (domain or fragment)",no binding
